{"source": "patent US7819855B2", "about": "“Catheter for modification of agent formulation” (Durect Corporation, priority 2001, dated 2010)", "test": "Dilution of baclofen HCl solution during transit through Silastic tubing catheter connected to DUROS osmotic pump, immersed in water bath, HPLC analysis", "conditions": "water bath 37° C., ten days; for Dilution Ratio Cι/Co: Co = 336.5 mg/cc", "procedure": "An osmotic pump (DUROS™) was connected to an elongate body comprising a catheter coupled with a length of Silastic™ tubing having the same ID and OD as described above. The pump was filled with baclofen HCl in 100% DMSO (drug concentration (Co) 336.5 mg/cc), with the pumping rate determined to be about 3.48 μl/day (0.145 μl/hr). A mark was placed on the catheter at 5.22 cm from the connector to the pump. The pump and the section of catheter up to the mark were immersed in a water bath at 37° C. for ten days, after which the pumps were removed. The catheter were clamped at slightly above the 5.22 cm marks, and cut with a pair of scissors. The drug solution above the 5.22 cm mark was collected in separate flaks. Each catheter was further rinsed three times with 150 μl deionized water using a Hamilton syringe. The drug solution and the rinse were combined with diluted to volume for HPLC analysis to determine drug concentration.", "key": {"[1]": {"conditions": "baclofen HCl in 100% DMSO, Co 336.5 mg/cc, pumping rate about 3.48 μl/day"}}, "note": "Values joined by “and” are separate entries in the source; they are usually repeats but may differ in a detail not shown here. Equal entries are not always repeated. Structures can show the parent of a compound that is named as a salt.", "data": [{"smiles": "NCC(CC(=O)O)c1ccc(Cl)cc1", "note": "(centres unmarked) [Baclofen HCl]", "values": [{"measurement": "Dilution Ratio Cι/Co", "result": "0.163 and 0.215"}, {"measurement": "Dilution Ratio Cι/Co", "setting": "listed as baclofen HCl", "result": "0.163 and 0.215"}, {"measurement": "Distance drug solution traveled above the 5.22 cm mark", "setting": "[1]", "result": "5.3 cm and 7.5 cm"}, {"measurement": "Total volume of drug solution above 5.22 cm mark", "setting": "[1]", "result": "0.0168 cc and 0.0238 cc"}, {"measurement": "Drug concentration (Cι) in Silastic catheter above the 5.22 cm mark", "setting": "baclofen HCl in 100% DMSO, Co 336.5 mg/cc, pumping rate about 3.48 μl/day, HPLC", "result": "54.8 mg/cc and 72.3 mg/cc"}]}]}
